Test results taken from PubChem BioAssay AID2551 (National Center for Advancing Translational Sciences (NCATS), 2010).
Screen size: about 310,000 compounds; about 17,000 (5.5%) were called active. The inconclusive results got no clear call from the source; some entries with a clear call stand among them for comparison. The call rests on the fitted dose curve; in most records, active means well fitted inhibition curve with a large enough effect; inconclusive means small, poorly fitted or top-dose-only effect, or effect the other way; inactive means no such curve, though single readings can be large or run the other way. Potencies of inconclusive entries are doubtful fits and often do not repeat.

By UniProt entry, the sequences of proteins in these tests, tags left out. Where a name states a change or a piece, a line headed by the entry shows the natural chain unless it says otherwise.
UniProt P51450: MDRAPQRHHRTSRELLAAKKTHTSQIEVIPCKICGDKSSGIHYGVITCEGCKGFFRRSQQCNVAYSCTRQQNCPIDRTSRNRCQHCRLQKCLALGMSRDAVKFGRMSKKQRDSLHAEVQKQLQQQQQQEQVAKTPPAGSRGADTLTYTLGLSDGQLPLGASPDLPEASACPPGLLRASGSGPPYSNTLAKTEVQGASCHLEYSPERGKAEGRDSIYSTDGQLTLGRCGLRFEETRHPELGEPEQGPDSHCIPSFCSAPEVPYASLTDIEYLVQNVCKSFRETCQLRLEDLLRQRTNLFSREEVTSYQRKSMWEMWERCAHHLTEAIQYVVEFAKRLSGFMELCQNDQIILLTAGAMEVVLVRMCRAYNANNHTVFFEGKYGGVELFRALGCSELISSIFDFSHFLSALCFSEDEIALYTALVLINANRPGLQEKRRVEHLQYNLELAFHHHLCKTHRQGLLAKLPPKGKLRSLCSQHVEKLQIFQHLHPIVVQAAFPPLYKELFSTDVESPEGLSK

target: Nuclear receptor ROR-gamma (Mus musculus) (UniProt P51450); experiment: qHTS for inhibitors of ROR gamma transcriptional activity; settings: Drosophila S2 Gal4-RORgamma UAS-luciferase reporter, 20 h; activity change, negative = inhibition: at 53.6 µM (top of the series); further: nearly all actives have a fitted effect of over 60% in size
Summary of the method: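 ROR gamma transcriptional activity was tracked as Gal4-UAS luciferase output in stably transfected Drosophila Schneider cells, with compound added 1 hr before 700 uM copper sulfate induction and a 20 hr ambient-temperature incubation.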
On the % scale 0 is the no-effect control and ±100 the full control effect; potency means the concentration at half of the fitted maximal effect.

| SMILES | activity change, negative = inhibition | Potency |
| --- | --- | --- |
| CCOc1cccc(C(=O)NC(=S)Nc2cccc(NC(=O)c3ccccc3Cl)c2)c1 | inactive: -40.5% [at 10 µM] | – |
| COC(=O)C1=C(C)N(Cc2ccccc2)C(=NCc2cccc(C(F)(F)F)c2)N[C@H]1c1cccc(C(F)(F)F)c1 | – | inconclusive: 35.5 µM [inhibitor, single point] |
| Cc1c(C(=O)NC2CCCCC2C)oc2ccccc12 (stereo not given) | – | active: 11.2 µM |
| C/C(=N\Nc1nccnc1Cl)c1c(F)c(F)c(F)c(F)c1F | – | active: 8.91 µM |
| O=C(NNC(=S)NC(=O)c1ccco1)c1ccc(NC(=O)c2ccccc2)cc1 | – | inconclusive: 12.6 µM [inhibitor, partial curve] |
| O=C(Cc1ccc(Cl)cc1Cl)Nc1ccncc1 | – | inconclusive: 3.98 µM [activator, single point] |
| O=C(CSC(=S)N1CCOCC1)Nc1nc(=O)c2ccccc2s1 | – | active: 12.6 µM |
| c1ccc(-c2nnc3sc(CN4CCc5ccccc54)cn23)cc1 | – | inconclusive: 11.2 µM [activator, partial curve, poor fit] |
| O=C(N/N=C/c1cc(O)ccc1Br)c1cccnc1 | – | active: 1.78 µM |
| CC(=O)N1CCCN(C(=O)c2cc(COc3c(F)cccc3F)on2)CC1 | – | inconclusive: 1.41 µM [inhibitor, full curve, poor fit] |
| Cc1ccc(Nc2nnc(C(C)(C)C)c(=O)n2N)cc1 | – | inconclusive: 17.8 µM [activator, single point] |
| O=C(Nc1ccc(Br)c(Cl)c1)C1CC1 | – | inconclusive: 15.8 µM [activator, single point] |
| Cc1ccc(NS(=O)(=O)c2cc(NC(=O)c3ccc4c(c3)NC(=O)CS4)ccc2Cl)c(C)c1 | – | inconclusive: 20 µM [activator, single point] |
| CCc1ccccc1Nc1nc2ccccc2n1C(C)C | – | inconclusive: 2.82 µM [inhibitor, full curve, poor fit] |
| COc1cc2c(cc1NC(=O)CSc1nccn1C)oc1ccccc12 | – | inconclusive: 35.5 µM [inhibitor, single point] |
| COc1ccccc1NC(=S)N1CCCc2ccccc21 | – | active: 2.82 µM |
| O=C(NCC1CCCO1)c1cccc(NC(=O)c2ccc(Br)cc2)c1 (stereo not given) | – | inconclusive: 0.631 µM [activator, full curve, poor fit] |
| O=C(OCc1ccc(Cl)c(Cl)c1)c1cccnc1Cl | inactive: 18.6% | – |
| O=C1CC(N2CCN(c3nc4ccccc4s3)CC2)C(=O)N1Cc1cccs1 (stereo not given) | – | inconclusive: 0.708 µM [inhibitor, single point] |
| CCCCCN(C(=O)CCC(=O)OCC(=O)N1CCCC(C)C1)c1c(N)n(CCCC)c(=O)[nH]c1=O (stereo not given) | inactive: -7.26% | – |
| COc1ccccc1-c1cc(C(F)(F)F)nc(S(=O)(=O)CCCC(=O)O)n1 | – | inconclusive: 11.2 µM [inhibitor, partial curve, poor fit] |
| COc1cccc(C(=O)Nc2nc3ccc(S(C)(=O)=O)cc3s2)c1 | – | active: 7.94 µM |
| CCCCCc1c(C)nc(Nc2ccccc2)[nH]c1=O | – | inconclusive: 15.8 µM [activator, partial curve, poor fit] |
| S=C1NC(c2ccccc2)=NCN1c1ccccc1 | – | active: 10 µM |
| O=C(Nc1ccc(S(=O)(=O)Nc2ccccc2)cc1)C1CC1 | – | inconclusive: 15.8 µM [activator, partial curve, poor fit] |

16 entries from above, arranged by number of heavy atoms, ascending.

| SMILES | activity change, negative = inhibition | Potency |
| --- | --- | --- |
| O=C(Nc1ccc(Br)c(Cl)c1)C1CC1 | – | inconclusive: 15.8 µM [activator, single point] |
| O=C(Cc1ccc(Cl)cc1Cl)Nc1ccncc1 | – | inconclusive: 3.98 µM [activator, single point] |
| S=C1NC(c2ccccc2)=NCN1c1ccccc1 | – | active: 10 µM |
| Cc1c(C(=O)NC2CCCCC2C)oc2ccccc12 (stereo not given) | – | active: 11.2 µM |
| CCc1ccccc1Nc1nc2ccccc2n1C(C)C | – | inconclusive: 2.82 µM [inhibitor, full curve, poor fit] |
| C/C(=N\Nc1nccnc1Cl)c1c(F)c(F)c(F)c(F)c1F | – | active: 8.91 µM |
| COc1cccc(C(=O)Nc2nc3ccc(S(C)(=O)=O)cc3s2)c1 | – | active: 7.94 µM |
| O=C(NCC1CCCO1)c1cccc(NC(=O)c2ccc(Br)cc2)c1 (stereo not given) | – | inconclusive: 0.631 µM [activator, full curve, poor fit] |
| COc1cc2c(cc1NC(=O)CSc1nccn1C)oc1ccccc12 | – | inconclusive: 35.5 µM [inhibitor, single point] |
| CC(=O)N1CCCN(C(=O)c2cc(COc3c(F)cccc3F)on2)CC1 | – | inconclusive: 1.41 µM [inhibitor, full curve, poor fit] |
| O=C1CC(N2CCN(c3nc4ccccc4s3)CC2)C(=O)N1Cc1cccs1 (stereo not given) | – | inconclusive: 0.708 µM [inhibitor, single point] |
| O=C(NNC(=S)NC(=O)c1ccco1)c1ccc(NC(=O)c2ccccc2)cc1 | – | inconclusive: 12.6 µM [inhibitor, partial curve] |
| CCOc1cccc(C(=O)NC(=S)Nc2cccc(NC(=O)c3ccccc3Cl)c2)c1 | inactive: -40.5% [at 10 µM] | – |
| Cc1ccc(NS(=O)(=O)c2cc(NC(=O)c3ccc4c(c3)NC(=O)CS4)ccc2Cl)c(C)c1 | – | inconclusive: 20 µM [activator, single point] |
| CCCCCN(C(=O)CCC(=O)OCC(=O)N1CCCC(C)C1)c1c(N)n(CCCC)c(=O)[nH]c1=O (stereo not given) | inactive: -7.26% | – |
| COC(=O)C1=C(C)N(Cc2ccccc2)C(=NCc2cccc(C(F)(F)F)c2)N[C@H]1c1cccc(C(F)(F)F)c1 | – | inconclusive: 35.5 µM [inhibitor, single point] |

(next part)

| SMILES | activity change, negative = inhibition | Potency |
| --- | --- | --- |
| O=S(Cc1ccc(Cl)cc1)CC(O)(c1ccccc1)c1ccccc1 (stereo not given) | – | inconclusive: 31.6 µM [activator, single point] |
| CCCCC1CC(C)(C(=O)CSc2nc3ccccc3s2)OC1=O (stereo not given) | – | inconclusive: 22.4 µM [inhibitor, single point] |
| Cn1c(CNc2ccc(O)cc2)nc2ccccc21 | – | inconclusive: 17.8 µM [inhibitor, single point] |
| Cc1nc(Nc2ncc(C(=O)Nc3c(C)cccc3Cl)s2)cc(N2CCN(CCO)CC2)n1 | inactive: 14.7% | – |
| CCOC(=O)c1c(C)c(C(=O)Nc2ccc3c(c2)OCCO3)c(C)n1CC | inactive: 2.49% | – |
| COc1cc(NS(=O)(=O)c2ccc(Br)cc2)c(OC)cc1NC(=O)c1ccco1 | – | inconclusive: 14.1 µM [inhibitor, single point] |
| CC1=C(C(=O)OCc2ccccc2)C(C2CCCCC2)NC(=O)N1CCCCCC(=O)O (stereo not given) | inactive: 41.4% | – |
| O=C(Nc1cc(C(F)(F)F)ccc1N1CCOCC1)C1Cc2ccccc2CN1C(=O)c1ccco1 (stereo not given) | inactive: -1.67% | – |
| CCOC(=O)c1ccc(NC(=O)Cn2cccc2)cc1 | – | inconclusive: 3.55 µM [activator, full curve, poor fit] |
| CC(C)(C)c1ccc(NC(=O)NCc2ccco2)cc1 | – | inconclusive: 3.98 µM [activator, partial curve] |
| CCOC(=O)c1sc(=S)n(CC)c1NC(=O)c1ccccc1C | – | inconclusive: 12.6 µM [activator, single point] |
| CCN1CCN(Cc2ccc(NC(=O)c3ccc(C)c(NC(=O)c4ccc5n[nH]nc5c4)c3)cc2C(F)(F)F)CC1 | inactive: -24.5% | – |
| CCCCNC(=S)N/N=C/c1cc(C)ccc1C | – | active: 1.78 µM |
| O=c1ccc2ccc(O[C@@H]3O[C@H](CO)[C@@H](O)[C@H](O)[C@H]3O)c(O)c2o1 | inactive: 20.7% | – |
| Clc1ccccc1COc1ccccc1-c1nnco1 | – | active: 11.2 µM |
| Cc1nc2c(sc3nc4c(cc32)COC(C)(C)C4)c(=O)o1 | inactive: -22.1% | – |
| CC(C)CCCC(C)C1CCC2C3CC(O)[C@@]4(O)CC(O)CC[C@@]4(C)C3CC[C@@]12C (stereo not given in full) | inactive: -26.5% | – |
| CCCOc1ccc(C(=O)NNC(=S)NC(=O)c2cc(-c3ccccc3)nc3ccccc23)cc1 | – | active: 7.08 µM |
| O=C(CCC1COc2ccccc2O1)Nc1ccc(Cl)cn1 (stereo not given) | – | inconclusive: 11.2 µM [activator, partial curve] |
| CCCCNC(=O)Nc1nc2ccc(CC)cc2s1 | inactive: -32% | – |
| CC(=O)c1sc2nc(-c3ccc(C)cc3)c3c(c2c1N)CCCC3 | – | inconclusive: 35.5 µM [inhibitor, single point] |
| CCOc1ccc(NC(=O)C2CCCN(S(=O)(=O)c3ccc4c(c3)CCCN4C(C)=O)C2)cc1 (stereo not given) | – | inconclusive: 12.6 µM [activator, single point] |
| O=C(N[C@@H](Cc1ccc(O)cc1)C(=O)O)c1ccc(C(F)(F)F)cc1 | – | inconclusive: 15.8 µM [inhibitor, single point] |
| CCc1ccc(-c2nc(CN3CCC(C(=O)NCCN(CC)c4ccccc4)CC3)c(C)o2)cc1 | inactive: -2.1% | – |
| COc1ccccc1N(CC(=O)NC1CCCC1)S(=O)(=O)c1ccc(C)cc1 | – | inconclusive: 12.6 µM [activator, partial curve] |

Single records, as listed above. Order of values: activity change, negative = inhibition	Potency
CCOC(=O)c1ccc(NC(=O)Cn2cccc2)cc1 as listed: –	inconclusive: 3.55 µM [activator, full curve, poor fit]
CCOc1cccc(C(=O)NC(=S)Nc2cccc(NC(=O)c3ccccc3Cl)c2)c1 as listed: inactive: -40.5% [at 10 µM]	–

Next part

| SMILES | activity change, negative = inhibition | Potency |
| --- | --- | --- |
| O=C(/C(=C(\O)c1ccccc1)c1nc2ccccc2[nH]1)c1ccccc1 | – | active: 7.94 µM |
| Nn1c(SCc2ccc(F)cc2)nnc1-c1ccccn1 | inactive: 6.6% | – |
| CCCCCC(=O)N1CCN(CCN=CC2=C(O)CC(c3cccs3)CC2=O)CC1 (stereo not given) | inactive: 4.22% | – |
| C[C@H](NC(=O)c1nc[nH]c1C(=O)N[C@@H](Cc1ccccc1)C(=O)OCc1ccccc1)c1ccccc1 | – | active: 4.47 µM |
| CCCCNC(=O)c1ccccc1SCc1c(C)noc1C | – | inconclusive: 15.8 µM [inhibitor, single point] |
| O=C(NC(=S)NC1CCSC1=O)c1ccccc1Cl (stereo not given) | – | inconclusive: 35.5 µM [inhibitor, single point] |
| CC(=O)Nc1ccc(NC(=O)CN2C(=O)COc3ccc(S(=O)(=O)N4CCCCC4)cc32)cc1 | inactive: -1.03% | – |
| COc1cc(/C=N/Nc2nc(=O)[nH]nc2C)cc([N+](=O)[O-])c1O | inactive: -47.4% | – |
| C=CCN(C(=O)CCc1ccccc1OC)c1nc(-c2ccc(S(C)(=O)=O)cc2)cs1 | – | inconclusive: 8.91 µM [activator, partial curve] |
| COc1ccc(-c2n[nH]c(=S)n2-c2ccccc2C)cc1OC | – | active: 11.2 µM |
| Cc1cc(C(=O)NNC(=S)NCC(C)C)cs1 | – | inconclusive: 7.94 µM [inhibitor, partial curve, poor fit] |
| COc1ccc(/C=N/Nc2nncc3ccccc23)c(OC)c1 | – | active: 4.47 µM |
| COc1cccc(NC(=O)N2CCN(c3cccc(C)c3C)CC2)c1 | – | inconclusive: 31.6 µM [activator, single point] |
| COc1ccccc1N=Cc1nc(-c2ccccc2)oc1OC(C)=O | – | inconclusive: 11.2 µM [activator, partial curve] |
| Cc1cc(N)c(C)c([N+](=O)[O-])c1C | – | inconclusive: 11.2 µM [activator, partial curve] |
| COc1ccc(-c2n[nH]c(C)c2-c2cnn(-c3ccccc3)c2)c(O)c1C | – | active: 11.2 µM |
| O=C(CN1CCN(c2ccccn2)CC1)N(c1ccccc1)c1ccc2ccccc2c1 | inactive: 42.6% | – |
| CSc1ccc(/C=N/Nc2nc(C)cc(=O)[nH]2)cc1 | inactive: 16.6% | – |
| CC(C)(C)C(=O)NC(=S)NNC(=O)c1ccc(Cl)cc1Cl | – | active: 2 µM |
| Cc1ccc(Nc2cc(C)nc(NCc3ccccc3)n2)cc1 | – | inconclusive: 35.5 µM [inhibitor, single point] |
| Oc1ccc(NCc2ccccc2OCc2ccccc2)cc1 | – | inconclusive: 25.1 µM [inhibitor, single point] |
| FC(F)(F)c1nc(N2CCN(c3ccccc3)CC2)nc2c1CCCCC2 | inactive: -35.2% [at 0.365 µM] | – |
| Nn1c(SCc2cccc(F)c2)nnc1-c1ccncc1 | inactive: 18.3% | – |
| CCCCNC(=O)c1nn2c(C(F)(F)F)cc(-c3ccccc3)nc2c1Br | – | inconclusive: 8.91 µM [activator, partial curve] |
| CN1CCN(c2nc(-c3cccs3)cs2)CC1 | inactive: 1.45% | – |
